# Source: PubChem BioAssay AID330 (DTP/NCI, 2004)
# The list does not hold the whole screen: it is rich in T/C values a quarter to a half above the control, in often repeated tests (any T/C) and in doses without a T/C. Other doses and runs of a compound stand elsewhere. T/C is the treated group as % of the vehicle group. Some entries give survivors of the animals treated and no T/C: the source holds a T/C of zero for them, seemingly a mark for toxic or unscored doses. Some survivor counts are full or nearly so, which does not show that the dose was tolerated: the source hardly ever lists a survival T/C far under the control, and the zero likely stands for such cases as well. Counts of survivors are from the toxicity check (mostly the fifth day) where no day follows; animals may have died later. Schedules are NCI's codes, read here as Q, the interval in days (D) or hours (H), X, the number of doses. Some entries were tested several times; the results are listed from low to high. Where survival is the endpoint, the PubChem record calls one and a half times the control and up active, and a quarter to a half above the control has no call in these data; cut-offs in other NCI protocols can differ. Some T/C values are followed by the survivors on the day toxicity was checked, most often the fifth; where none is given, no animal had died by that day.
# Tested on: P388 leukemia ip, CD2F1 mice, survival T/C
# Test: NCI In Vivo Anticancer Drug Screen. Data for tumor model P388 Leukemia (intraperitoneal) in CD2F1 (CDF1) mice
# Conditions: T/C endpoint: median survival time, higher T/C = longer survival
# [1] = dose: 200.0 mg/kg/injection, schedule: Q01DX009 (ip), vehicle: saline
# [2] = dose: 3.12 mg/kg/injection, schedule: Q01DX009 (ip), vehicle: Klucel (hydroxypropylcellulose) (HPC)
# [3] = dose: 6.25 mg/kg/injection, schedule: Q01DX009 (ip), vehicle: Klucel (hydroxypropylcellulose) (HPC)
# [4] = dose: 25.0 mg/kg/injection, schedule: Q01DX009 (ip), vehicle: saline with Tween-80
# [5] = dose: 50.0 mg/kg/injection, schedule: Q01DX009 (ip), vehicle: Klucel (hydroxypropylcellulose) (HPC)
# [6] = dose: 200.0 mg/kg/injection, schedule: Q01DX005 (ip), vehicle: saline with Tween-80
# [7] = dose: 100.0 mg/kg/injection, schedule: Q01DX009 (ip), vehicle: saline with Tween-80
# [8] = dose: 200.0 mg/kg/injection, schedule: Q01DX009 (ip), vehicle: saline with Tween-80
# [9] = dose: 50.0 mg/kg/injection, schedule: Q01DX009 (ip), vehicle: saline with Tween-80
# [10] = dose: 100.0 mg/kg/injection, schedule: Q01DX009 (ip), vehicle: Klucel (hydroxypropylcellulose) (HPC)
# [11] = dose: 200.0 mg/kg/injection, schedule: Q01DX009 (ip), vehicle: Klucel (hydroxypropylcellulose) (HPC)
# [12] = dose: 200.0 mg/kg/injection, schedule: Q01DX005 (ip), vehicle: Klucel (hydroxypropylcellulose) (HPC)
# [13] = dose: 100.0 mg/kg/injection, schedule: Q01DX005 (ip), vehicle: Klucel (hydroxypropylcellulose) (HPC)
structure (smiles),measurement,setting,value
CC1(C)OC(=O)N(CO)C1=O,T/C,"dose: 50.0 mg/kg/injection, schedule: Q01DX009 (ip), vehicle: saline",126 % of control [5 of 6 alive]
same,T/C,"dose: 100.0 mg/kg/injection, schedule: Q01DX009 (ip), vehicle: saline",133 % of control [5 of 6 alive]
same,T/C,[1],142 % of control
same,survivor count,"dose: 400.0 mg/kg/injection, schedule: Q01DX009 (ip), vehicle: saline",2 of 6
S=c1s/c(=C\c2ccccc2)c2nc3ccccc3n12,survivor count,[1],6 of 6
C1CCC2[N-]CC3CCCCC3[N-]CC3CCCCC3[N-]CC3CCCCC3[N-]CC2C1.[Cu+2].[O-][Cl+3]([O-])([O-])O (stereo not drawn),T/C,"dose: 1.56 mg/kg/injection, schedule: Q01DX009 (ip), vehicle: Klucel (hydroxypropylcellulose) (HPC)",136 % of control
same,T/C,[2],136 % of control
same,survivor count,[2],6 of 6
same,T/C,[3],145 % of control
same,survivor count,[3],6 of 6
same,T/C,"dose: 12.0 mg/kg/injection, schedule: Q01DX009 (ip), vehicle: saline with Tween-80",145 % of control
same,T/C,"dose: 18.0 mg/kg/injection, schedule: Q01DX009 (ip), vehicle: saline with Tween-80",139 % of control
same,T/C,[4],135 % of control
same,survivor count,[5],0 of 6
C=C1CC2(CCOc3ccc(Cl)cc32)OC1=O (stereo not drawn),survivor count,"dose: 400.0 mg/kg/injection, schedule: Q04DX003 (ip), vehicle: saline with Tween-80",5 of 6
CCN(CC)CCCC(c1ccccc1)c1ccccc1,survivor count,"dose: 100.0 mg/kg/injection, schedule: Q01DX005 (ip), vehicle: saline with Tween-80",0 of 5
same,survivor count,[6],0 of 5
CC1(C)CCCC12CCN1CCC([N+](=O)[O-])C12 (stereo not drawn),survivor count,"dose: 184.0 mg/kg/injection, schedule: Q04DX003 (ip), vehicle: saline with Tween-80",0 of 5
COc1ccc(/C(C#N)=C/c2ccccc2)cc1,survivor count,"dose: 50.0 mg/kg/injection, schedule: Q01DX009 (ip), vehicle: suspension in saline",6 of 6
Cc1nc(-c2ccccc2)nc2c1nc(C(C)C)n2Nc1ccccc1,survivor count,[6],6 of 6
COC(=O)c1c(O)c(OC)c(-c2ccccc2)[nH]c1=O,survivor count,"dose: 240.0 mg/kg/injection, schedule: Q01DX005 (ip), vehicle: saline with Tween-80",6 of 6
CCN(CC)CCCC(C)NC(=O)c1ccc2c(c1O)C(=O)c1ccccc1C2=O (stereo not drawn),T/C,"dose: 5.0 mg/kg/injection, schedule: Q01DX009 (ip), vehicle: water",125 % of control
same,survivor count,"dose: 40.0 mg/kg/injection, schedule: Q01DX009 (ip), vehicle: water",4 of 6
same,survivor count,"dose: 80.0 mg/kg/injection, schedule: Q01DX009 (ip), vehicle: water",0 of 6
COC1/C=C/OC2(C)Oc3c(C)c(O)c4c(O)c(c(/C=N/N5C(C)CN(Cc6ccc([N+](=O)[O-])cc6)CC5C)c(O)c4c3C2=O)NC(=O)/C(C)=C\C=C\C(C)C(O)C(C)C(O)C(C)C(OC(C)=O)C1C (stereo not drawn),T/C,[7],126 % of control
same,survivor count,[8],1 of 6 and 5 of 6
O=C(NC1CCCCC1)N1CCCC1,survivor count,[9],5 of 6
CN(C)C(=O)On1cc(Cl)cc1C#N,survivor count,"dose: 150.0 mg/kg/injection, schedule: Q04DX003 (ip), vehicle: Klucel (hydroxypropylcellulose) (HPC)",0 of 6
same,survivor count,"dose: 300.0 mg/kg/injection, schedule: Q04DX003 (ip), vehicle: Klucel (hydroxypropylcellulose) (HPC)",0 of 6
O=C1OC(=O)c2ccc3c4c(ccc1c24)C(=O)OC3=O,survivor count,[6],4 of 6
CC1c2c(cc(OC(=O)c3cccc(S(=O)(=O)F)c3)nc2OC(=O)c2cccc(S(=O)(=O)F)c2)C(=O)N1Cc1ccccc1 (stereo not drawn),survivor count,[5],6 of 6
same,survivor count,[10],6 of 6
same,survivor count,[11],6 of 6
Cn1nc(/C=C/c2ccccc2)nc2c(=O)n(C)c(=O)nc1-2,survivor count,"dose: 12.5 mg/kg/injection, schedule: Q01DX009 (ip), vehicle: saline with Tween-80",0 of 6
same,survivor count,[4],0 of 6
same,survivor count,[9],0 of 6
same,survivor count,[7],0 of 6
same,survivor count,[8],0 of 6
O=C(O)c1cccc2c1Cc1cc([N+](=O)[O-])ccc1-2,survivor count,[12],3 of 6
NC(=S=O)C(N)=S=O,T/C,[6],127 and 135 % of control
CCSc1nc(Cl)cc(Sc2nc(N)nc3nc[nH]c23)n1,survivor count,[8],6 of 6
same,survivor count,"dose: 300.0 mg/kg/injection, schedule: Q01DX009 (ip), vehicle: saline with Tween-80",4 of 6
CC1CC[P+](C)(c2ccccc2)c2ccccc21 (stereo not drawn),survivor count,"dose: 25.0 mg/kg/injection, schedule: Q04DX002 (ip), vehicle: saline",0 of 6
same,survivor count,"dose: 50.0 mg/kg/injection, schedule: Q04DX002 (ip), vehicle: saline",0 of 6
same,survivor count,"dose: 100.0 mg/kg/injection, schedule: Q04DX002 (ip), vehicle: saline",0 of 6
same,survivor count,"dose: 200.0 mg/kg/injection, schedule: Q04DX002 (ip), vehicle: saline",0 of 6
same,survivor count,"dose: 400.0 mg/kg/injection, schedule: Q04DX002 (ip), vehicle: saline",0 of 6
CCN(C(=O)CCl)c1ccccc1C,survivor count,"dose: 200.0 mg/kg/injection, schedule: Q04DX003 (ip), vehicle: saline with Tween-80",6 of 6
CSCNC(=S)Nc1ccc(Cl)cc1,survivor count,[10],3 of 6
same,survivor count,[11],0 of 6
Nc1ccc2ccc(N)cc2c1,T/C,"dose: 400.0 mg/kg/injection, schedule: Q01DX005 (ip), vehicle: saline with Tween-80",135 % of control [5 of 6 alive]
CCCn1c(C)nc2c(N)cc(C)cc21,survivor count,[12],4 of 6
Cc1cc(CN2CCN(CCO)CC2)c(O)c(CN2CCN(CCO)CC2)c1,survivor count,"dose: 240.0 mg/kg/injection, schedule: Q01DX005 (ip), vehicle: saline",0 of 6
COc1cc2cc3c4ccc(OC)c(OC)c4cc[n+]3c(C)c2cc1OC (tested in a mixture with another compound),survivor count,[8],0 of 6
same,survivor count,"dose: 400.0 mg/kg/injection, schedule: Q01DX009 (ip), vehicle: saline with Tween-80",0 of 6
O=c1cccccc1Cl,survivor count,[8],0 of 6
C(=C\CSc1ccccn1)/CSc1ccccn1,survivor count,[10],6 of 6
CCCCCCCCCCCCCCCCCC(=O)Nc1ccn(C2OC(CO)C(O)C2O)c(=O)n1 (stereo not drawn),T/C,[7],126 % of control
same,survivor count,[8],6 of 6
O=S(=O)(c1ccc(N=C=S)cc1)c1ccc(N=C=S)cc1,T/C,"dose: 50.0 mg/kg/injection, schedule: Q01DX005 (ip), vehicle: Klucel (hydroxypropylcellulose) (HPC)",125 [5 of 6 alive] and 126 % of control
same,T/C,[13],128 % of control [5 of 6 alive]
same,survivor count,[13],6 of 6
same,survivor count,[12],0 of 6 and 2 of 6
